Experimental data: the supplement of paper PMC10849652
The other results are listed elsewhere or left out.

Protein sequences, listed by entry. Tags and fused reporters are not part of them. Lines headed by an entry give the natural chain unless they say otherwise; changes in a name come on top.
UniProt Q9UPP1: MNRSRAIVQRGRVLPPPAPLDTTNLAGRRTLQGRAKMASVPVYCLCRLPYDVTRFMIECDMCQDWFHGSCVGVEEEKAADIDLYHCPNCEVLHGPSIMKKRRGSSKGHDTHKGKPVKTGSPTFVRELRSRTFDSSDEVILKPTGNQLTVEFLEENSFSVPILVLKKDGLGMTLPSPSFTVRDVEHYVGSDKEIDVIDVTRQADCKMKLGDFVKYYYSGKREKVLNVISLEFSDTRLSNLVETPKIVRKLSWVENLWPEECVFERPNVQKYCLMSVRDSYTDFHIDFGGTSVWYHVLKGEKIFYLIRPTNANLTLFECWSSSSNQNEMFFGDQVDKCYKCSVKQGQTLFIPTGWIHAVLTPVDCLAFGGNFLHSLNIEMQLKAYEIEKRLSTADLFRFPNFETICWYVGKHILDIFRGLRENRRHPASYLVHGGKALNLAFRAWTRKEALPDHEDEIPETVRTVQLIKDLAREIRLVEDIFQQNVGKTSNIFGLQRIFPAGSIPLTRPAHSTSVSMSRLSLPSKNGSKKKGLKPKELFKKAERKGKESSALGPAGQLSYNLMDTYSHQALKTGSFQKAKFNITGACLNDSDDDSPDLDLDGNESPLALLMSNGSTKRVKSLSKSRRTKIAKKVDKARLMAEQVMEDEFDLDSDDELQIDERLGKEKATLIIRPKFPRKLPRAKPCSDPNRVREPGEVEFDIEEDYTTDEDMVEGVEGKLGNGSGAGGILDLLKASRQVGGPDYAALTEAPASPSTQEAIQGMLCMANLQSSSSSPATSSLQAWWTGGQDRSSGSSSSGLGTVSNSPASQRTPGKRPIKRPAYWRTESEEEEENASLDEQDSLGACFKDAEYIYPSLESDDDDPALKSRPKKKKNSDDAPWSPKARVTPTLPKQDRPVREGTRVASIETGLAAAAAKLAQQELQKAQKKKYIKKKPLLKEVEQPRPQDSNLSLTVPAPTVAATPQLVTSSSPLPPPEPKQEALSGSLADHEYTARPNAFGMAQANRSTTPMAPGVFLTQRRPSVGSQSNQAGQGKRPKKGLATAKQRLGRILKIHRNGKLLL
UniProt Q9H5I5: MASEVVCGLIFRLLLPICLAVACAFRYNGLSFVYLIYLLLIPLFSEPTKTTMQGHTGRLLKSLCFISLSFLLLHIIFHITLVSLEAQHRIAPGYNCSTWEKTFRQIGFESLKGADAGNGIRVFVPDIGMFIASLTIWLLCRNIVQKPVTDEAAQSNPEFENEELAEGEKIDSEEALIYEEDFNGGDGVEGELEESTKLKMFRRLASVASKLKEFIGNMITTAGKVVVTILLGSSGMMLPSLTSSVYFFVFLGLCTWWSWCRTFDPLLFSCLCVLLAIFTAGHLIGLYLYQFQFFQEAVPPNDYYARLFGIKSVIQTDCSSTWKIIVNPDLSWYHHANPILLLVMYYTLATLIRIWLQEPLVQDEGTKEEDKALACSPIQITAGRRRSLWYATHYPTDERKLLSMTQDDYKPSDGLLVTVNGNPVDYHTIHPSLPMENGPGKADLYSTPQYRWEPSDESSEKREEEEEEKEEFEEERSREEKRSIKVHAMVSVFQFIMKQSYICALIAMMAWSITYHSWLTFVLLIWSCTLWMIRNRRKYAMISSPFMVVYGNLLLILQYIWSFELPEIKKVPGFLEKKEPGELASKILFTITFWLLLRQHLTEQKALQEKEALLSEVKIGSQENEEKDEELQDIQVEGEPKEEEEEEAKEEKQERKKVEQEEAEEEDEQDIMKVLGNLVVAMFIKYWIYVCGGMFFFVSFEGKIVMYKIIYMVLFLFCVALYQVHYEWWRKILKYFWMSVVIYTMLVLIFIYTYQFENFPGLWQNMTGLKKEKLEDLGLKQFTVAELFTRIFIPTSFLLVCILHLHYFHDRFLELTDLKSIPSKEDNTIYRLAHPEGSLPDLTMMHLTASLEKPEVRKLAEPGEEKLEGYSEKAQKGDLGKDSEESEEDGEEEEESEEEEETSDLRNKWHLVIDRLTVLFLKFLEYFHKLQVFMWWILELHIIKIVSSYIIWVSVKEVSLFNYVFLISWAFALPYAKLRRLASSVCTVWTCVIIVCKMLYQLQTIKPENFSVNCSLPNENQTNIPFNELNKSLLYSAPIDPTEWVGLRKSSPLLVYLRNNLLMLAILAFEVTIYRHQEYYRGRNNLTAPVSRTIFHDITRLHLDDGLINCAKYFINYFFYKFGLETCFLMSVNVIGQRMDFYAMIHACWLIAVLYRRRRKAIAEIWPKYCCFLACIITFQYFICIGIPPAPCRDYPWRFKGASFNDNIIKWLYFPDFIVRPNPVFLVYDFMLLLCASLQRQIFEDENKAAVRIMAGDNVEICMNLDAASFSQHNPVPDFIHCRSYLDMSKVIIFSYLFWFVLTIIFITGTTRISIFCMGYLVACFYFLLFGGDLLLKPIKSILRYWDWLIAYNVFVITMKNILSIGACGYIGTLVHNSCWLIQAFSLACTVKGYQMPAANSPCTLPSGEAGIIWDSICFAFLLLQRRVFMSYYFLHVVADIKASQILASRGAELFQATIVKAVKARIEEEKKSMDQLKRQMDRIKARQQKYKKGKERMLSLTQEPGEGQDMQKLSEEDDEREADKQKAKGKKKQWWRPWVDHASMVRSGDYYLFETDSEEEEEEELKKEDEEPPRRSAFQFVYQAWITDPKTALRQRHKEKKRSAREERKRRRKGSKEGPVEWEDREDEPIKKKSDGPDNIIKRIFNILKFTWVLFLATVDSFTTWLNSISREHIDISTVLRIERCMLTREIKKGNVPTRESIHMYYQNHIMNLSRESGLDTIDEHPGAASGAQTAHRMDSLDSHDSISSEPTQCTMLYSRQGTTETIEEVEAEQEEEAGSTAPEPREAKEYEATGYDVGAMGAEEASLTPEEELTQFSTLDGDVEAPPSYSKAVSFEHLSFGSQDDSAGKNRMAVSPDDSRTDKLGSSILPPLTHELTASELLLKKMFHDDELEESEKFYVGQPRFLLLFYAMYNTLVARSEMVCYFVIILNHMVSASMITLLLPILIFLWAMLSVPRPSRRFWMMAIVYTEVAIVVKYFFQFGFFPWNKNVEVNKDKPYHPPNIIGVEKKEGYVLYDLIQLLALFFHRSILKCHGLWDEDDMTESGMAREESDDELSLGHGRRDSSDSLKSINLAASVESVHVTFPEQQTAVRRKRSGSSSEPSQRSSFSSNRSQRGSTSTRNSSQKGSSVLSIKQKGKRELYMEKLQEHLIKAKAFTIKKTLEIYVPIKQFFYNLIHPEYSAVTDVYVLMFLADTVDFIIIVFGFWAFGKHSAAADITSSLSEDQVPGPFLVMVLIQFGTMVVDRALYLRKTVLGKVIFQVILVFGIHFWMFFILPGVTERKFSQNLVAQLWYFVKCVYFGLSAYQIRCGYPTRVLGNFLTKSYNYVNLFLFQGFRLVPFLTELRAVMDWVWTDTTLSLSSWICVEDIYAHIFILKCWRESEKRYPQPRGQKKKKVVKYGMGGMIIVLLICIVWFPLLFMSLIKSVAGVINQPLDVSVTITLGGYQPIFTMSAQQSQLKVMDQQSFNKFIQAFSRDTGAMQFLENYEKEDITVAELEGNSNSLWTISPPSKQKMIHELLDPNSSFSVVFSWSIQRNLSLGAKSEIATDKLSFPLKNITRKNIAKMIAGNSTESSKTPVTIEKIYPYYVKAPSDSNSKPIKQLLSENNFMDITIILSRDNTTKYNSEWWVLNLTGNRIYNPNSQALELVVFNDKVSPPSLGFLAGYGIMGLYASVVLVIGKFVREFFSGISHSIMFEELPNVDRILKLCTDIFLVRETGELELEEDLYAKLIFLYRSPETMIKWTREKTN
UniProt Q14442: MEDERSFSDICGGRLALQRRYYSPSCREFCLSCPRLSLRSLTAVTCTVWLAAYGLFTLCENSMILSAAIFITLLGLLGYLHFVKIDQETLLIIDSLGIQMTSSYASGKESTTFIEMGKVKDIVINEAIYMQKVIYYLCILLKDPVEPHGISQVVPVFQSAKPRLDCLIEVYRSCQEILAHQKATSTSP
UniProt P37287: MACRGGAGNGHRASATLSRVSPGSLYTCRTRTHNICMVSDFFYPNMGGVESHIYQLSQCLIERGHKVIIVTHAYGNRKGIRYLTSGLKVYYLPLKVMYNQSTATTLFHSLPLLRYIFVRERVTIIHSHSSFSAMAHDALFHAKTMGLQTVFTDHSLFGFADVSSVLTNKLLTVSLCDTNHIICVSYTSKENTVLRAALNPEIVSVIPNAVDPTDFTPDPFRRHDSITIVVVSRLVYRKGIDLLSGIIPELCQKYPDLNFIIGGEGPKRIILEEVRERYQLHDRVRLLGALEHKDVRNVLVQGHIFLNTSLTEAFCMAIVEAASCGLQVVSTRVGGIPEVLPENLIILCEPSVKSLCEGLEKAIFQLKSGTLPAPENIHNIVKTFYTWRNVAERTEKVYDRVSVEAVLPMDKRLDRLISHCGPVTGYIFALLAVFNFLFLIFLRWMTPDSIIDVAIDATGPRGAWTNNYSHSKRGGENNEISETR
UniProt Q4KWH8: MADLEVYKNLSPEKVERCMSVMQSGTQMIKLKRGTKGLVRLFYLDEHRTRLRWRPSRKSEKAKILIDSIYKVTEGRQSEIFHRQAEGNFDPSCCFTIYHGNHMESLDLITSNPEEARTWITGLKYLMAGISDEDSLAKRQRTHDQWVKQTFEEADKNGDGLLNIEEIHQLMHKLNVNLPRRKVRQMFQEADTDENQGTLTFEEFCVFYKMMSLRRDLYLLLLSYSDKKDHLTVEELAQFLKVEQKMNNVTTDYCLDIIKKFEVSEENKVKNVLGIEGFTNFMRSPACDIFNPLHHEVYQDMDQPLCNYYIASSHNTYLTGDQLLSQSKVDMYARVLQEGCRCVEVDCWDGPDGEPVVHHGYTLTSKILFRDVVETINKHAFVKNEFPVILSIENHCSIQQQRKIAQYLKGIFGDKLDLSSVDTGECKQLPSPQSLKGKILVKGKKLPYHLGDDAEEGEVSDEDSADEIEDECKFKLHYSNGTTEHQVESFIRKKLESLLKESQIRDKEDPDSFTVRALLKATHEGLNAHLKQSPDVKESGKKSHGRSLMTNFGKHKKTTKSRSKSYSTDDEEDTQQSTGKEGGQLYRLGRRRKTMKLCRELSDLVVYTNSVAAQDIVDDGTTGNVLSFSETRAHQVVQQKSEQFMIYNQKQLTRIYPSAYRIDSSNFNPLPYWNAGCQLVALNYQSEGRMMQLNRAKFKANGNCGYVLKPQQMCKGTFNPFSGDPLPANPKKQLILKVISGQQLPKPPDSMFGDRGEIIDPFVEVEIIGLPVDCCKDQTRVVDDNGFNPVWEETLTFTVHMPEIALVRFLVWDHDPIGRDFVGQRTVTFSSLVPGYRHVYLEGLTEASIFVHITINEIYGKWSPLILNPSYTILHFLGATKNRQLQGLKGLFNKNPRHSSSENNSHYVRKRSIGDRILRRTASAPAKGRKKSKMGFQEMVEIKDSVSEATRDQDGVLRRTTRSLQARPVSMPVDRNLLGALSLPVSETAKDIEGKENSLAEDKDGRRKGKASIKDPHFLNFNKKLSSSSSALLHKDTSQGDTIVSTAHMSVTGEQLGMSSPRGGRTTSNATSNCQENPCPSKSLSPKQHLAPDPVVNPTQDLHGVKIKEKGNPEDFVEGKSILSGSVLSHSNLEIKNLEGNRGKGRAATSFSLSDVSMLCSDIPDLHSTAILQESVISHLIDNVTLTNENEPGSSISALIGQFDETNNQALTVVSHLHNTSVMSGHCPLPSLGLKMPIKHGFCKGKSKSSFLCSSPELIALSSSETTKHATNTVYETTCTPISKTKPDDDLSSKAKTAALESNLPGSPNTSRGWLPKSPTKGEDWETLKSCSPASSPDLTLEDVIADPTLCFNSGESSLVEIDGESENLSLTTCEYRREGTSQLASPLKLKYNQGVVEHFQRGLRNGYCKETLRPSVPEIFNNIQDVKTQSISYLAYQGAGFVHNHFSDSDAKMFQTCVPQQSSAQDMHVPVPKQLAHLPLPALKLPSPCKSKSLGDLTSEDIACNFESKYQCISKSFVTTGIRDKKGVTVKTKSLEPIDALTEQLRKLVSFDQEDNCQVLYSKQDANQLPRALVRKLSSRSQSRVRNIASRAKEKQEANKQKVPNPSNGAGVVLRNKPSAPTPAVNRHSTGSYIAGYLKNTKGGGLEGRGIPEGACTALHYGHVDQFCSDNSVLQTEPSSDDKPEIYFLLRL
UniProt Q9Y2B2: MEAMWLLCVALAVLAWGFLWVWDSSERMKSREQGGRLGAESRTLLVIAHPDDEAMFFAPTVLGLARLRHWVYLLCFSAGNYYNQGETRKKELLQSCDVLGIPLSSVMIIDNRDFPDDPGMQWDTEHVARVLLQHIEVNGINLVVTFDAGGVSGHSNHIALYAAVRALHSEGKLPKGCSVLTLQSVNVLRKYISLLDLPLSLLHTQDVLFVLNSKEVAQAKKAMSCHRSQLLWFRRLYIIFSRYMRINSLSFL
UniProt Q53GA4: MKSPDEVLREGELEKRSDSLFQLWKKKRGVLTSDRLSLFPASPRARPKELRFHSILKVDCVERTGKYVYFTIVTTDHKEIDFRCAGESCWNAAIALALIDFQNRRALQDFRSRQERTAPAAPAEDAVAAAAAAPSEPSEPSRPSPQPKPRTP

What follows are targets tested with Cn1cncc1[C@@](N)(c1ccc(Cl)cc1)c1ccc2c(c1)c(-c1cccc(Cl)c1)cc(=O)n2C [tipifarnib] (assay: log2 fold change, soluble protein after heating vs DMSO (PISA); higher = thermal stabilisation; K562 lysate, 10 uM; active = over 0.2 and 3.5 SD of the protein, either way, in both replicates (recomputed)).
Procedure, shortened: (§1)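 Quantification was by TMTpro 16plex LC-MS/MS with equalised channel sums, applied to the supernatant after 21,000xg for 90 min. Samples were crude K562 extract at 1 mg/mL protein in PBS pH 7.4 with 1 mM MgCl2, treated with 10 μM compound for 30 min, heated for 3 min across 48°C-58°C, pooled and brought to 0.5% NP-40 at 4°C. Values are log-two fold changes in thermal stability relative to solvent controls, from duplicates.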

For PIGT, A0A1W2PP13, which log2 fold change is on record?
Its log2 fold change is inactive: -0.012.

PIWIL4 (UniProt Q7Z3Z4) was tested. Which log2 fold change did it give?
The log2 fold change was inactive: 0.053.

With PHF8 (UniProt Q9UPP1) as the target, how does the log2 fold change read?
The log2 fold change was inactive: 0.018.

For PIK3R3 (UniProt Q92569), which log2 fold change is on record?
The log2 fold change was inactive: 0.034.

Which log2 fold change does the source give for PIEZO2 isoform 4 (UniProt Q9H5I5) here?
The log2 fold change was inactive: 0.056.

For PHF19 (UniProt Q5T6S3), which log2 fold change is on record?
Its log2 fold change is inactive: -0.209.

These targets were tested with NC(=O)Nc1cc(-c2cccc(F)c2)sc1C(=O)N[C@H]1CCCNC1 in the same assay as above.
Procedure, shortened: as §1

How did the log2 fold change turn out when PIGQ (UniProt Q9BRB3) was run?
Its log2 fold change is inactive: 0.011.

PITX1 (UniProt P78337) was tested. Which log2 fold change did it give?
The log2 fold change was inactive: 0.107.

With PIP5K1B isoform 2 (UniProt O14986) as the target, how does the log2 fold change read?
The log2 fold change was inactive: -0.049.

For PIGH (UniProt Q14442), which log2 fold change is on record?
The log2 fold change was inactive: -0.172.

With PKM (UniProt H3BTN5) as the target, how does the log2 fold change read?
The log2 fold change was inactive: -0.05.

How did the log2 fold change turn out when PHOSPHO2 (UniProt C9JD35) was run?
The log2 fold change was inactive: -0.102.

Which log2 fold change does the source give for PIGA (UniProt P37287) here?
Its log2 fold change is inactive: -0.004.

For PHF20 (UniProt Q9BVI0), which log2 fold change is on record?
The log2 fold change was inactive: 0.02.

For PHF8 (UniProt Q9UPP1), which log2 fold change is on record?
The log2 fold change was inactive: 0.037.

How did the log2 fold change turn out when PHLDB3 (UniProt Q6NSJ2) was run?
The log2 fold change was inactive: 0.115.

PHYKPL (UniProt Q8IUZ5) was tested. Which log2 fold change did it give?
The log2 fold change was inactive: 0.123.

Which log2 fold change does the source give for PIGBOS1, A0A0B4J2F0 here?
The log2 fold change was inactive: -0.121.

For PIGB (UniProt Q92521), which log2 fold change is on record?
The log2 fold change was inactive: 0.011.

How did the log2 fold change turn out when PIEZO2 isoform 4 (UniProt Q9H5I5) was run?
The log2 fold change was inactive: 0.092.

PLEK (UniProt P08567) was tested. Which log2 fold change did it give?
Its log2 fold change is inactive: -0.025.

How did the log2 fold change turn out when PHF13 (UniProt Q86YI8) was run?
The log2 fold change was inactive: -0.009.

How did the log2 fold change turn out when PLCH1 (UniProt Q4KWH8) was run?
The log2 fold change was inactive: -0.052.

With PIGM (UniProt Q9H3S5) as the target, how does the log2 fold change read?
Its log2 fold change is inactive: 0.057.

Which log2 fold change does the source give for PLEC isoform 3 (UniProt Q15149) here?
The log2 fold change was inactive: 0.113.

Which log2 fold change does the source give for PHF19 (UniProt Q5T6S3) here?
The log2 fold change was inactive: -0.062.

How did the log2 fold change turn out when PIK3AP1 (UniProt Q6ZUJ8) was run?
The log2 fold change was inactive: 0.124.

How did the log2 fold change turn out when PIGL (UniProt Q9Y2B2) was run?
Its log2 fold change is inactive: -0.076.

Which log2 fold change does the source give for PHLDA2 (UniProt Q53GA4) here?
The log2 fold change was inactive: 0.079.

With PIMREG (UniProt Q9BSJ6) as the target, how does the log2 fold change read?
Its log2 fold change is inactive: -0.018.

Each target was assayed with NC(=O)c1cnc(N[C@@H]2CCCC[C@@H]2N)nc1Nc1cccc(-n2nccn2)c1 in the same assay as above.
Procedure, shortened: as §1

PIGQ (UniProt Q9BRB3) was tested. Which log2 fold change did it give?
The log2 fold change was inactive: 0.011.

How did the log2 fold change turn out when PKIB isoform 2 (UniProt Q9C010) was run?
Its log2 fold change is inactive: 0.023.

Which log2 fold change does the source give for PHGDH, A0A286YFE1 here?
Its log2 fold change is inactive: -0.29.

How did the log2 fold change turn out when PIGH (UniProt Q14442) was run?
Its log2 fold change is inactive: 0.054.

PKM (UniProt H3BTN5) was tested. Which log2 fold change did it give?
Its log2 fold change is inactive: 0.027.

PIGT, A0A1W2PP13 was tested. Which log2 fold change did it give?
Its log2 fold change is inactive: 0.032.

Which log2 fold change does the source give for PIGA (UniProt P37287) here?
The log2 fold change was inactive: -0.045.

For PGM3 (UniProt D6RCQ8), which log2 fold change is on record?
The log2 fold change was inactive: -0.161.

PHYKPL (UniProt Q8IUZ5) was tested. Which log2 fold change did it give?
The log2 fold change was inactive: -0.031.

PLCB4 isoform 4 (UniProt Q15147) was tested. Which log2 fold change did it give?
The log2 fold change was inactive: 0.125.

How did the log2 fold change turn out when PGK2 (UniProt P07205) was run?
Its log2 fold change is inactive: 0.07.

For PIEZO2 isoform 4 (UniProt Q9H5I5), which log2 fold change is on record?
The log2 fold change was inactive: 0.03.

For PHF13 (UniProt Q86YI8), which log2 fold change is on record?
The log2 fold change was inactive: 0.052.

With PLCH1 (UniProt Q4KWH8) as the target, how does the log2 fold change read?
Its log2 fold change is inactive: 0.034.

How did the log2 fold change turn out when PIGM (UniProt Q9H3S5) was run?
The log2 fold change was inactive: -0.05.

For PIGN (UniProt O95427), which log2 fold change is on record?
The log2 fold change was inactive: 0.227.

Which log2 fold change does the source give for PIGL (UniProt Q9Y2B2) here?
The log2 fold change was inactive: -0.037.

Each target was assayed with NC1(c2ccc(-c3nc4ccn5c(=O)[nH]nc5c4cc3-c3ccccc3)cc2)CCC1 in the same assay as above.
Procedure, shortened: as §1

How did the log2 fold change turn out when PIGH (UniProt Q14442) was run?
The log2 fold change was inactive: -0.105.

For PKM (UniProt H3BTN5), which log2 fold change is on record?
The log2 fold change was inactive: 0.077.

How did the log2 fold change turn out when PLEKHG2 (UniProt Q9H7P9) was run?
The log2 fold change was inactive: 0.034.

With PIGA (UniProt P37287) as the target, how does the log2 fold change read?
Its log2 fold change is inactive: -0.096.

Which log2 fold change does the source give for PHF8 (UniProt Q9UPP1) here?
Its log2 fold change is inactive: 0.197.

How did the log2 fold change turn out when PICALM (UniProt H0YCY1) was run?
The log2 fold change was inactive: 0.013.

PHLDB3 (UniProt Q6NSJ2) was tested. Which log2 fold change did it give?
Its log2 fold change is inactive: -0.155.

For PHYKPL (UniProt Q8IUZ5), which log2 fold change is on record?
The log2 fold change was inactive: 0.04.

PLCB4 isoform 4 (UniProt Q15147) was tested. Which log2 fold change did it give?
The log2 fold change was inactive: -0.192.

With PGM1 isoform 2 (UniProt P36871) as the target, how does the log2 fold change read?
Its log2 fold change is inactive: 0.293.

How did the log2 fold change turn out when PIEZO2 isoform 4 (UniProt Q9H5I5) was run?
The log2 fold change was inactive: -0.009.

For PLEK (UniProt P08567), which log2 fold change is on record?
Its log2 fold change is inactive: -0.065.

PLCH1 (UniProt Q4KWH8) was tested. Which log2 fold change did it give?
Its log2 fold change is inactive: -0.001.

For PIGM (UniProt Q9H3S5), which log2 fold change is on record?
The log2 fold change was inactive: -0.2.

PIGN (UniProt O95427) was tested. Which log2 fold change did it give?
The log2 fold change was inactive: 0.213.

For PHF19 (UniProt Q5T6S3), which log2 fold change is on record?
Its log2 fold change is inactive: -0.1.

Which log2 fold change does the source give for PIGL (UniProt Q9Y2B2) here?
Its log2 fold change is inactive: -0.109.

How did the log2 fold change turn out when PHLDA2 (UniProt Q53GA4) was run?
Its log2 fold change is inactive: -0.138.

How did the log2 fold change turn out when PLAUR (UniProt Q03405) was run?
The log2 fold change was inactive: 0.155.

With PIMREG (UniProt Q9BSJ6) as the target, how does the log2 fold change read?
The log2 fold change was inactive: 0.198.
